The results in this text go back to paper doi:10.1101/2020.12.17.423362.

The chains behind the UniProt entries cited, without tags or fusion partners.
UniProt Q99873: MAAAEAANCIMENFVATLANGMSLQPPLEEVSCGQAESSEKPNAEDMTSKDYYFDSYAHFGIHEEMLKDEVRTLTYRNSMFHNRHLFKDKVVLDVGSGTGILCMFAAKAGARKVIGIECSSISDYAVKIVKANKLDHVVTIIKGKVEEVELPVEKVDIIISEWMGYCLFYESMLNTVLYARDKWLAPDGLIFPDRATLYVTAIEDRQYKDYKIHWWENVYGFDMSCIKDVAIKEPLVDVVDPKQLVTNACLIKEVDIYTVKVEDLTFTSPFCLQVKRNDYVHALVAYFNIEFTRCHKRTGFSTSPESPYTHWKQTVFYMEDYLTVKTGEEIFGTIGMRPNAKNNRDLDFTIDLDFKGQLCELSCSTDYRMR
UniProt Q13200: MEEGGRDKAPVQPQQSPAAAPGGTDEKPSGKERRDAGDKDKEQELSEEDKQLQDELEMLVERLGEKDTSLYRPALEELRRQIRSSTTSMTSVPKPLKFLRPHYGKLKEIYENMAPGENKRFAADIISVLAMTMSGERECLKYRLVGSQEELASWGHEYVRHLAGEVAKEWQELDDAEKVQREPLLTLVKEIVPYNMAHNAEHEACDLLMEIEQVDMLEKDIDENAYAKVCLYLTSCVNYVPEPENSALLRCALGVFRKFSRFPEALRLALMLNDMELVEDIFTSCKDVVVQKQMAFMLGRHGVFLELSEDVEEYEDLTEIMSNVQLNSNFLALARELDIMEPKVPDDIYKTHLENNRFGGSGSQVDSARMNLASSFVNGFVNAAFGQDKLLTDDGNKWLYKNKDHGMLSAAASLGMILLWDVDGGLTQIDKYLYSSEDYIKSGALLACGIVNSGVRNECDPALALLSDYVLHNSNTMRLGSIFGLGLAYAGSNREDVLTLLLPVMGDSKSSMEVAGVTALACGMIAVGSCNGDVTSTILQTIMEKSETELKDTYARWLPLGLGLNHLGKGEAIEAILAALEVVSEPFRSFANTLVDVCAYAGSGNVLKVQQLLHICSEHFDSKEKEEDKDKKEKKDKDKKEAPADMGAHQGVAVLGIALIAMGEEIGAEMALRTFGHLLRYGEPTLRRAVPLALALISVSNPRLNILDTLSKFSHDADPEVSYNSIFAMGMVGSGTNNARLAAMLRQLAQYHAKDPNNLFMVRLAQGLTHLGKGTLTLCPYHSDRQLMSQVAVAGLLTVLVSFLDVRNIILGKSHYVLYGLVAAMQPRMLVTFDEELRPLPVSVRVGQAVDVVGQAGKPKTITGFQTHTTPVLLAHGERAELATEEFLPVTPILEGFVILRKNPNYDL
UniProt P55036: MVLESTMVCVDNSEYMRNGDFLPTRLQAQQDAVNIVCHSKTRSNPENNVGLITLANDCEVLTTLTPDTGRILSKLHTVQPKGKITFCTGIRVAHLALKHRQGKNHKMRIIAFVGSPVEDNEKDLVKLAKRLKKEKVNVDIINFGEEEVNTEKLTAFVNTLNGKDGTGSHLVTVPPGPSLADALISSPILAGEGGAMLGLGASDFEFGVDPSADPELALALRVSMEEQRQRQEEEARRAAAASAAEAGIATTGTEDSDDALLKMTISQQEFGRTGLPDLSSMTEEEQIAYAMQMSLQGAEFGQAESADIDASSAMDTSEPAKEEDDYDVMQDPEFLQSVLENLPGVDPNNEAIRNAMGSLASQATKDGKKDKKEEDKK
UniProt Q13547: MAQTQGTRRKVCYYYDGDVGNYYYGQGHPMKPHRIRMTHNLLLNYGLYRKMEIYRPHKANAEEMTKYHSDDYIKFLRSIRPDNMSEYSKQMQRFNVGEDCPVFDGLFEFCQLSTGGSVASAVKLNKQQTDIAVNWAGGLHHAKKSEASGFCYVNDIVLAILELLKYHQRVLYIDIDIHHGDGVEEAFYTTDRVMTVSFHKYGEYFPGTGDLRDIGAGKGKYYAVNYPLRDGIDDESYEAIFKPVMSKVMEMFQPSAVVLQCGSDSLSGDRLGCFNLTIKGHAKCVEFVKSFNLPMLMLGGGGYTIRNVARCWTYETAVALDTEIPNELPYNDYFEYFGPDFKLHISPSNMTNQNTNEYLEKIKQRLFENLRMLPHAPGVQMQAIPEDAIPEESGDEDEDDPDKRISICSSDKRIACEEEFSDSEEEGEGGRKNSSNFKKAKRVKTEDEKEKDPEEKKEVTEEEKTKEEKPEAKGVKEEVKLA
UniProt P25787: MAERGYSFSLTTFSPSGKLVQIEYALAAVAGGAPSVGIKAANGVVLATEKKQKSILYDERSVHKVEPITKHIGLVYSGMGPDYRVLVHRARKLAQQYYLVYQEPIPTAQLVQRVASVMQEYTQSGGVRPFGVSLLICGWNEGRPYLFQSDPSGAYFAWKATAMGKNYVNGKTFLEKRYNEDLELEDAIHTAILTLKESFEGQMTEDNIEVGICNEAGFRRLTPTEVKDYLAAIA
UniProt Q16186: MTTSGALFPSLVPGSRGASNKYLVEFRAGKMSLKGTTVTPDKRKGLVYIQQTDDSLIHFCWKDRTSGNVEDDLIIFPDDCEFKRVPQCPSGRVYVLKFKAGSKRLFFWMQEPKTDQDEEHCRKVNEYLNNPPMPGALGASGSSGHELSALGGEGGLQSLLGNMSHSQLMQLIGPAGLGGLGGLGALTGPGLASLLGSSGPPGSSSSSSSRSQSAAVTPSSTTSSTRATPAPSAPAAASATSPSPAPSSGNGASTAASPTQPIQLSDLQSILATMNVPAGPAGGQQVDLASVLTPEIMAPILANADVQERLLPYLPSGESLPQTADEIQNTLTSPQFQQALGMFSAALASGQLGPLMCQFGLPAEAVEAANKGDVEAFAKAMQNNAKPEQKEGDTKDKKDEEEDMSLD
UniProt O43347: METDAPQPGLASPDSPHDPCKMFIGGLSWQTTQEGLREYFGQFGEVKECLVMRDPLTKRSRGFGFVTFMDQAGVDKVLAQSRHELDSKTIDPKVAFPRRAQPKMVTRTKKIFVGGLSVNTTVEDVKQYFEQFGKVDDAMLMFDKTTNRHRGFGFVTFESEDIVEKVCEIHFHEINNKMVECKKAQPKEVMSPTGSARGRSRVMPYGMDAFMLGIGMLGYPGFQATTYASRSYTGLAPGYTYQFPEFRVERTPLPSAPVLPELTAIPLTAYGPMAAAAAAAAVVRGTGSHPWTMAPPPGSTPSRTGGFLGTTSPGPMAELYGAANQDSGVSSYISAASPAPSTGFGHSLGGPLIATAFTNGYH

No constants are given. Whether binding was seen depends on the method and setting. Binding seen in cells or lysates may run through a third protein. Some entries that bind do so weakly or less than the wild type.

The target in the assay is PRMT1 (human) (UniProt Q99873). Put plainly: co-IP.
Regarding PSMD2 (from UniProt Q13200 1-908), the binding result is on record as “binds”.

Turning to PSMD4 (from UniProt P55036 1-377), the binding result is listed as “binds”. On to HDAC1 (from UniProt Q13547 1-482), for which the binding result is on record as “binds”. In the case of PSMA2 (from UniProt P25787 1-234), the binding entry is on record as “binds”. The value for ADRM1 (from UniProt Q16186 1-407) was “binds”; that for MSI1 (from UniProt O43347 1-362) was “binds”.
